PubChem BioAssay AID493246 – Drosophila RNAi Screening Center | 2011
The deposit covers about 21,000 reagents; this is an unselected part of those with a known target gene and a result. Of all reagents, 429 (2%) got an active call. 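Values are raw and not normalised between plates; calls rest on per-plate z-scores that were not deposited.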 Entries without a mark were called inactive. Reagents against one gene are numbered here. Names joined by + are all predicted targets of the reagent. The record does not give: the amount of reagent, the time to read-out.

- Test: 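Genome-wide search for dsRNAs that reduce cell number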 (primary screen)
- Cells: Drosophila Kc and S2R+ cells
- Reagents: long dsRNA against Drosophila genes
- Detection: 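Cell number per well after knock-down, printed as raw plate values; calls were based on per-plate z-scores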
- Scale: Kc cell number and S2R+ cell number: higher = more cells remaining
- Call rule: 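Counted as a hit if cell number falls by a z-score of at least 3 within its plate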

gene | reagent no. | Kc cell number, rep 1 | Kc cell number, rep 2 | S2R+ cell number, rep 1 | S2R+ cell number, rep 2
mRpS17 | 1 | 1.48e6 | 1.58e6 | 1.28e6 | 1.28e6
CG3776 | 1 | 1.42e6 | 1.44e6 | 1.13e6 | 1.13e6
DIP-alpha | 1 | 1.14e6 (active) | 1.38e6 | 5.64e5 | 6.53e5
Arf6 | 1 | 1.67e6 | 1.68e6 | 1.39e6 | 1.50e6
CG34436 | 1 | 1.61e6 | 1.65e6 | 1.04e6 | 1.15e6
Caper | 1 | 1.17e6 | 1.33e6 | 4.15e5 | 5.54e5
Ctns | 1 | 1.60e6 | 1.48e6 | 1.01e6 | 1.12e6
Idh3g | 1 | 1.56e6 | 1.52e6 | 1.02e6 | 1.07e6
Drep4 | 1 | 1.59e6 | 1.86e6 | 1.20e6 | 1.36e6
Rack1 | 1 | 1.55e6 | 1.64e6 | 1.05e6 | 1.16e6
CG42523 | 1 | 1.80e6 | 1.79e6 | 1.11e6 | 1.30e6
if | 1 | 1.79e6 | 1.85e6 | 1.13e6 | 1.28e6
CG8306 | 1 | 1.36e6 | 1.41e6 | 1.25e6 | 1.27e6
CG30345 | 1 | 1.40e6 | 1.50e6 | 9.40e5 | 1.01e6
CG14200 | 1 | 1.10e6 (active) | 1.14e6 | 5.52e5 | 6.53e5
CG4896 | 1 | 1.42e6 | 1.38e6 | 8.08e5 | 7.92e5
a10 | 1 | 1.41e6 | 1.70e6 | 1.43e6 | 1.52e6
CG3164 | 1 | 1.60e6 | 1.59e6 | 1.09e6 | 1.30e6
Ugt307A1 | 1 | 1.79e6 | 1.81e6 | 1.37e6 | 1.47e6
fd3F (retired record) + Crg-1 | 1 | 1.42e6 | 1.53e6 | 1.09e6 | 1.17e6
Rpt4 | 1 | 8.90e5 (active) | 8.86e5 | 6.71e5 | 7.70e5
CG7091 | 1 | 1.36e6 | 1.57e6 | 1.06e6 | 1.18e6
CG7091 | 2 | 1.54e6 | 1.54e6 | 1.15e6 | 1.26e6
sns | 1 | 2.85e5 (active) | 4.49e5 | 6.47e5 | 7.97e5
sns | 2 | 1.80e6 | 1.77e6 | 1.26e6 | 1.51e6
sns | 3 | 1.52e6 | 1.59e6 | 1.25e6 | 1.34e6
sns | 4 | 1.44e6 | 1.49e6 | 1.21e6 | 1.29e6
sns | 5 | 1.39e6 | 1.46e6 | 8.45e5 | 9.84e5
dnc | 1 | 1.52e6 | 1.54e6 | 9.34e5 | 1.11e6
dnc | 2 | 1.53e6 | 1.63e6 | 1.05e6 | 1.18e6
dnc | 3 | 1.49e6 | 1.54e6 | 1.08e6 | 1.20e6
dnc | 4 | 1.59e6 | 1.54e6 | 1.07e6 | 1.24e6
dnc | 5 | 1.60e6 | 1.68e6 | 1.06e6 | 1.26e6
Der-1 | 1 | 1.38e6 | 1.37e6 | 1.05e6 | 1.03e6
CG4613 | 1 | 1.67e6 | 1.79e6 | 1.27e6 | 1.34e6
capt | 1 | 1.60e6 | 1.64e6 | 1.07e6 | 1.24e6
capt | 2 | 1.49e6 | 1.55e6 | 1.03e6 | 1.18e6
Cnx99A + Cnx14D | 1 | 1.44e6 | 1.39e6 | 9.84e5 | 1.09e6
Or43a | 1 | 1.59e6 | 1.70e6 | 1.24e6 | 1.35e6
rut | 1 | 9.71e5 (active) | 9.95e5 | 6.10e5 | 6.50e5
CG8960 | 1 | 1.56e6 | 1.55e6 | 1.11e6 | 1.28e6
mbf1 | 1 | 1.59e6 | 1.71e6 | 1.27e6 | 1.32e6
CG31200 | 1 | 1.26e6 | 1.27e6 | 1.04e6 | 1.14e6
CG15695 | 1 | 1.37e6 | 1.49e6 | 1.02e6 | 1.03e6
CG1889 | 1 | 6.59e5 | – | 9.42e5 | –
Hr83 | 1 | 1.53e6 | 1.68e6 | 1.30e6 | 1.35e6
hpRNA:CR32207 | 1 | 1.37e6 | 1.48e6 | 1.08e6 | 1.26e6
CG8204 | 1 | 1.71e6 | 1.70e6 | 1.34e6 | 1.53e6
gsb | 1 | 1.65e6 | 1.51e6 | 1.36e6 | 1.40e6
CG11756 | 1 | 1.64e6 | 1.55e6 | 1.18e6 | 1.28e6
salt | 1 | 5.62e5 | – | 7.81e5 | –
crm | 1 | 5.84e5 | – | 9.06e5 | –
CG7737 | 1 | 1.25e6 | 1.36e6 | 1.11e6 | 1.15e6
scb | 1 | 1.42e6 | 1.39e6 | 9.83e5 | 1.14e6
scb | 2 | 1.56e6 | 1.58e6 | 1.33e6 | 1.53e6
Cyp6a18 | 1 | 1.70e6 | 1.82e6 | 1.10e6 | 1.22e6
fws | 1 | 1.09e6 | 1.33e6 | 1.03e6 | 1.04e6
CG11929 | 1 | 1.56e6 | 1.62e6 | 1.22e6 | 1.36e6
Vha68-3 | 1 | 1.61e6 | 1.63e6 | 1.30e6 | 1.39e6
